Values quoted from earlier work as cited in paper PMC10828645 (Heliyon, 2024).

How the values were obtained:
[1] = mouse, in vivo; cited from earlier work
[2] = marketed drugs; ref [1],[7]; cited from earlier work

SMILES	Kp,uu,brain [1]	fu,b [2]	Kp,brain [1]
CN1CC[C@]23c4c5ccc(O)c4O[C@H]2[C@@H](O)C=C[C@H]3[C@H]1C5 [Morphine]	0.72	0.500	–
CN1C(=O)CN=C(c2ccccc2)c2cc(Cl)ccc21 [Diazepam]	–	0.050	2.00
